Assay results taken from US5278060.
Construct, isoform or probe ends are uncertain for at least one entry. For part of these data: A negative result means that nothing was seen under these conditions.

Tests used:
[1] = system: Nla III modification methylase (Neisseria lactamica NRCC 2118); assay: activity in cells; settings: methylated by Nla III methylase at CATG sites (position not given); in vivo modification protects plasmids from BspH I, Sph I and Nla III digestion; protein in cells; only the motif is given
[2] = system: Nla III restriction endonuclease (Neisseria lactamica NRCC 2118); assay: enzyme reaction in vitro; settings: protein in a lysate after overexpression, only the motif is given

| Sequence | activity on this sequence [1] | activity on this sequence ([2]; methylated by Nla III methylase at CATG sites (position not given), methylase clone plasmids resistant to Nla III digestion (also BspH I, Sph I), enzyme source for this digestion not stated) | activity on this sequence ([2]; crude extract, 37 C 1 h, about 2x10^4 units per gram of cells) |
| --- | --- | --- | --- |
| CATG (double strand) [Nla III methylase clone plasmids modified in vivo] | active | not active | – |
| CATG (double strand) [phage lambda DNA (CATG sites)] | – | – | active |
